Results reported in article doi:10.1101/612408.
No constants are given. Whether binding was seen depends on the method and setting. Binding seen in cells or lysates may run through a third protein. Some binding calls cover weakened binding; strength is not graded here. For some of these results: Where a sequence is shown, tags or fusion partners need not be part of it.

By UniProt entry, the sequences of proteins in these tests, tags left out.
UniProt Q9C9X6: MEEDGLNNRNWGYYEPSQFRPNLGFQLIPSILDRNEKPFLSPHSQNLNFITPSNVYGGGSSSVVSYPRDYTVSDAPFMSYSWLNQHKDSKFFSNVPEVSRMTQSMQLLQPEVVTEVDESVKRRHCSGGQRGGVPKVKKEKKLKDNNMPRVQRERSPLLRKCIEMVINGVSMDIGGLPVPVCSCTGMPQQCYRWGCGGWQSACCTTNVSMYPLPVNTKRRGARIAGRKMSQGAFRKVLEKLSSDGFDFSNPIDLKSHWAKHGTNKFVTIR
UniProt P0DKJ8: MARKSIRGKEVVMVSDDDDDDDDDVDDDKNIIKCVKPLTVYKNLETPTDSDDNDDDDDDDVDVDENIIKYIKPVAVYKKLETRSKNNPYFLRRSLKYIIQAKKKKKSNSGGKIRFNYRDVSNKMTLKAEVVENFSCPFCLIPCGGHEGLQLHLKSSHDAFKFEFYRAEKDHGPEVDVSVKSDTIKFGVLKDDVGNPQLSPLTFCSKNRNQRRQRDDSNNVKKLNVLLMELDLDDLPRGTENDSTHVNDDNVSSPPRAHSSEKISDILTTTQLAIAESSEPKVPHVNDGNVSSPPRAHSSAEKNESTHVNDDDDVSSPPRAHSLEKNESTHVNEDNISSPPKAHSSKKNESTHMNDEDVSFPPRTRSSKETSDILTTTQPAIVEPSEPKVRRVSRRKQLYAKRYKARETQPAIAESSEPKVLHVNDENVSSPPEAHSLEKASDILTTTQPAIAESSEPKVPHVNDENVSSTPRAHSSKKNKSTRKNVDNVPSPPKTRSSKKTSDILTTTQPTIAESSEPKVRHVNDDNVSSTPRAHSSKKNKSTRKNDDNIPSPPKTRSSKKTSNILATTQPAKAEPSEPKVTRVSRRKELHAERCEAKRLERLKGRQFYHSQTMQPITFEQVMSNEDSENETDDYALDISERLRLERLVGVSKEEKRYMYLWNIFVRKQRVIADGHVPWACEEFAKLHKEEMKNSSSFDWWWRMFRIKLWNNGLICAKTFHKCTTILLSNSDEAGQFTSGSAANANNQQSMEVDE
UniProt O22467: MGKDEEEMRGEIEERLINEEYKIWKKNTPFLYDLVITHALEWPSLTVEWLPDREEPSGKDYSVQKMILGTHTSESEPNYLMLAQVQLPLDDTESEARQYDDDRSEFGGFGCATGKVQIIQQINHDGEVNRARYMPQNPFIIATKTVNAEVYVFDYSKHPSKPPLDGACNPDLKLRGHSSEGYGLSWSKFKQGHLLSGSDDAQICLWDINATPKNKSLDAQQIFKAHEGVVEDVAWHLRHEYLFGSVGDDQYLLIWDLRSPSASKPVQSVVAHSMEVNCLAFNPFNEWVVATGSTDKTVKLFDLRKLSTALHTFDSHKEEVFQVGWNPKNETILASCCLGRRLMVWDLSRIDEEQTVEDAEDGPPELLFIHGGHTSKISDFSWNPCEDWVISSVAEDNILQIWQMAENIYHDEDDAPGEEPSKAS

T1: LIKE HETEROCHROMATIN PROTEIN1 (Arabidopsis) (UniProt Q946J8)
T1 sequence: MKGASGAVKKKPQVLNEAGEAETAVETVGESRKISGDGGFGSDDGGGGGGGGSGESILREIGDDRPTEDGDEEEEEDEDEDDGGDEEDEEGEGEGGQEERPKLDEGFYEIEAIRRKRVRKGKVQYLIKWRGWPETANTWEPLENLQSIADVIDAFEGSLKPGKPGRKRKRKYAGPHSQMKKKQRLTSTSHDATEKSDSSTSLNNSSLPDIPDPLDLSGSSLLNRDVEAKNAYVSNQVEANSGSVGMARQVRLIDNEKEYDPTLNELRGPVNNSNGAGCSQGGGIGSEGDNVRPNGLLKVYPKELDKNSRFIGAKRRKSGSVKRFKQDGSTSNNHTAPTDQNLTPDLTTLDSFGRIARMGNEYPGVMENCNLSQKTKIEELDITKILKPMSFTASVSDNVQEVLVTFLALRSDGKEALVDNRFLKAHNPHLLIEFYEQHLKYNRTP

T2: MEA (Arabidopsis) (UniProt O65312)
T2 sequence: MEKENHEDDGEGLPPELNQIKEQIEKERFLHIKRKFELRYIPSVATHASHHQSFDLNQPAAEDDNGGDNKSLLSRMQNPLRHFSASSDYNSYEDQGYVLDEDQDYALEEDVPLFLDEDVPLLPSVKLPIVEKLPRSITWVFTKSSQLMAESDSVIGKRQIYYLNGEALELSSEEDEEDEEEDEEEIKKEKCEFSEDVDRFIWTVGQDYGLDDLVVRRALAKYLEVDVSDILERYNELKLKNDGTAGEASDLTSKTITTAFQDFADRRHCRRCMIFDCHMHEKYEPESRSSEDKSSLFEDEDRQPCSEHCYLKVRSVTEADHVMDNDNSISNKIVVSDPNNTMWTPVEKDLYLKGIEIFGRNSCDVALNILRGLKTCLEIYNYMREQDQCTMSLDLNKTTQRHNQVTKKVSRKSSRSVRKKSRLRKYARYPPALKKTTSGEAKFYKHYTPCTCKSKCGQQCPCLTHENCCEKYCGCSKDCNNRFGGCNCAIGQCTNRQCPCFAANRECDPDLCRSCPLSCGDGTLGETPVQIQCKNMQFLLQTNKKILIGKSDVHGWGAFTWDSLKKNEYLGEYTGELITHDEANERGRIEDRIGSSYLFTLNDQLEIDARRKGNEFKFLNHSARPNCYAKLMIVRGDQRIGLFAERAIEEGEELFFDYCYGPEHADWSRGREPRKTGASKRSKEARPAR

T3: FIERY (FIE) (Arabidopsis) (UniProt Q9LT47)
T3 sequence: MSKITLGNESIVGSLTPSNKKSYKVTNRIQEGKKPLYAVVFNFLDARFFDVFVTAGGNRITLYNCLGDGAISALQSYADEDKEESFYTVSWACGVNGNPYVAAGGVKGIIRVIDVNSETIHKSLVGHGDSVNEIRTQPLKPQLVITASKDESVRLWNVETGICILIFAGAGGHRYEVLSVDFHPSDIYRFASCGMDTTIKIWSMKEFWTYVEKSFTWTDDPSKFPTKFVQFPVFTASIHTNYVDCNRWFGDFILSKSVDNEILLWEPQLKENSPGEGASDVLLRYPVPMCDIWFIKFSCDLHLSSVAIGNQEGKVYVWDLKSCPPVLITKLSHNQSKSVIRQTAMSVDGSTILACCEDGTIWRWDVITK

T4: BPC1 (Arabidopsis) (UniProt Q9SKD0)
T4 sequence: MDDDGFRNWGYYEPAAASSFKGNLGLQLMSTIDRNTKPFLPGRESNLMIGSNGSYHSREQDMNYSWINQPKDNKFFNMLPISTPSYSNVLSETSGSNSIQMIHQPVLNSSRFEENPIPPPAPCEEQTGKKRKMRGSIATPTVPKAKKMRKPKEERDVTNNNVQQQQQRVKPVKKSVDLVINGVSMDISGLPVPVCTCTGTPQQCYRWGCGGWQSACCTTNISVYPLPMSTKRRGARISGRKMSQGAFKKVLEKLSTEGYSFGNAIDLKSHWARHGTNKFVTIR

T5: BPC2 (Arabidopsis) (UniProt Q9LDE2)
T5 sequence: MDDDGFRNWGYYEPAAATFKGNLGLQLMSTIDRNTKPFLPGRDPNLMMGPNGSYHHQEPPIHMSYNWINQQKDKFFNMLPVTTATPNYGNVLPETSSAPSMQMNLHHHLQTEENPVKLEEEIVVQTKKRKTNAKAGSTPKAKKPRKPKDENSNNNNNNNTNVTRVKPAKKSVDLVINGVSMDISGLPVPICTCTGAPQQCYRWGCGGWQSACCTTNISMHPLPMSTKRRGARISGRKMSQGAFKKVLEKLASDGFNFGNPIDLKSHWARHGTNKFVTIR

B1: BPC1 (protein, UniProt Q9SKD0 1-283)
chain: T4 sequence
B2: BPC2 (protein, UniProt Q9LDE2 1-279)
chain: T5 sequence
B3: FUSCA3 (protein, UniProt Q9LW31 1-313)
chain: MMVDENVETKASTLVASVDHGFGSGSGHDHHGLSASVPLLGVNWKKRRMPRQRRSSSSFNLLSFPPPMPPISHVPTPLPARKIDPRKLRFLFQKELKNSDVSSLRRMILPKKAAEAHLPALECKEGIPIRMEDLDGFHVWTFKYRYWPNNNSRMYVLENTGDFVNAHGLQLGDFIMVYQDLYSNNYVIQARKASEEEEVDVINLEEDDVYTNLTRIENTVVNDLLLQDFNHHNNNNNNNSNSNSNKCSYYYPVIDDVTTNTESFVYDTTALTSNDTPLDFLGGHTTTTNNYYSKFGTFDGLGSVENISLDDFY

What was measured:
Assay in all cases: split reporter
BPC3 (Arabidopsis) = BPC3 (Arabidopsis) (UniProt Q9C9X6)
FIS2 (Arabidopsis) = FIS2 (Arabidopsis) (UniProt P0DKJ8)
MSI1 (Arabidopsis) = MSI1 (Arabidopsis) (UniProt O22467)
[1] = biological target: T1, LIKE HETEROCHROMATIN PROTEIN1 (Arabidopsis)
MEA (Arabidopsis) = biological target: T2, MEA (Arabidopsis)
[2] = biological target: T3, FIERY (FIE) (Arabidopsis)
BPC1 (Arabidopsis) = biological target: T4, BPC1 (Arabidopsis)
BPC2 (Arabidopsis) = biological target: T5, BPC2 (Arabidopsis)

Molecule | binding (BPC3 (Arabidopsis)) | binding (FIS2 (Arabidopsis)) | binding (MSI1 (Arabidopsis)) | binding [1] | binding (MEA (Arabidopsis)) | binding [2] | binding (BPC1 (Arabidopsis)) | binding (BPC2 (Arabidopsis))
BPC3 (from UniProt Q9C9X6 1-269) | binds | binds | binds | no binding | binds | no binding |  | 
B1 | binds | binds | binds | no binding | binds | binds | no binding | binds
B2 | binds | binds | binds | no binding | binds | binds |  | binds
B3 | no binding | no binding | no binding |  | no binding | no binding | no binding | no binding
